This is one part of the list.
Biological target: T1, OsSMF1 (Oryza sativa, UniProt Q6ZLB0 1-436)
T1 sequence: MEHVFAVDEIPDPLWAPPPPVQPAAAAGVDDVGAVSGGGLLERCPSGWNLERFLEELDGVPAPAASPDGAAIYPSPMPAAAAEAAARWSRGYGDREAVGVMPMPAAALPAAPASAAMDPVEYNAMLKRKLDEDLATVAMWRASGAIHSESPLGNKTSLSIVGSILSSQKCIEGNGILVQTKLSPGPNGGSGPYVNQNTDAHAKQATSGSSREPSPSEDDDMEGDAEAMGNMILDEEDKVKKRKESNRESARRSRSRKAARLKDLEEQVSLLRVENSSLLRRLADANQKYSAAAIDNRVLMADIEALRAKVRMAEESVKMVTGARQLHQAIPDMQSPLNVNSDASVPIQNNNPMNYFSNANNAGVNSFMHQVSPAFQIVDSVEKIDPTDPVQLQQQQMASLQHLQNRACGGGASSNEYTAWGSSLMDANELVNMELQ
Assay: protein-binding microarray (RPBM); PBS, 2% BSA, 51.3 ng/ul salmon testes DNA, 50 uM zinc acetate, 200 nM TF, 25 C, 1 h; high values mean tight binding
Settings: protein: recombinant; tags: N-terminal polyhistidine and DsRed monomer fusion (pET32a); chain copies: 2; label: CyDye5-dUTP incorporated in the synthesized complementary strand; 3' TTTTT single-stranded linker to array surface; dsDNA, one strand shown
Outline: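 The binding signal is fluorescence intensity per array feature (arbitrary units). Readings came from an Axon 4000B scanner after a washed, 2% BSA-blocked, double-stranded custom Agilent array had been incubated for 1 h at 25 °C with 200 nM protein and 50 µM zinc acetate. The protein was a Ni–NTA-purified transcription factor fused N-terminally to polyhistidine and DsRed, expressed in E. coli BL21-CodonPlus.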

Q: How did the binding signal turn out when “ATAGCTAGCTGTGAGCAACTGACTGAACATTTATCAAATGCGGAGTCACCTAGTGCAG” was run?
A: The binding signal was 3420 fluorescence intensity (a.u.).

Q: How did the binding signal turn out when “TTGAGGTTTGTTCATGGTTGTCTATTTTCCAGTATTAGCTCGGAGTCACCTAGTGCAG” was run?
A: Its binding signal is 3300 fluorescence intensity (a.u.).

Q: “GAGCGCGGAAGCCGGCGGCGGCCGTACGTGTTCGGCCGGCCGGAGTCACCTAGTGCAG” was tested. Which binding signal did it give?
A: The binding signal was 3410 fluorescence intensity (a.u.).

Q: How did the binding signal turn out when “CCTCCGTGGTATTCAGACTGAGAGTAAGGAACCGCATATTCGGAGTCACCTAGTGCAG” was run?
A: The binding signal was 3980 fluorescence intensity (a.u.).

Q: For “ATAGCCCAAAAGTGACCGAAAGGAAAGCTGACAAGGACCACGGAGTCACCTAGTGCAG”, which binding signal is on record?
A: Its binding signal is 4800 fluorescence intensity (a.u.).

Q: “TCCAAGGTTCACAAAATATAGAGGCCAACACATGCATATTCGGAGTCACCTAGTGCAG” was tested. Which binding signal did it give?
A: The binding signal was 3560 fluorescence intensity (a.u.).

Q: Which binding signal does the source give for “TACTATTATTCATAAGGTCATAGTCATTGCCTGCATAGTGCGGAGTCACCTAGTGCAG” here?
A: Its binding signal is 3550 fluorescence intensity (a.u.).

Q: With “GAGTATTATATAGTTTCGTCATGATAGTCTTATACACGCACGGAGTCACCTAGTGCAG” as the sequence, how does the binding signal read?
A: The binding signal was 16400 fluorescence intensity (a.u.).

Q: With “AATCCTAGTTTACTGGCAATTGGCAGTTTGAGGACGTCAGCGGAGTCACCTAGTGCAG” as the sequence, how does the binding signal read?
A: Its binding signal is 4420 fluorescence intensity (a.u.).

Q: With “GGCTTCGCATCGCTCCTCCTCGTCTGACTTCGCGTCACTCCGGAGTCACCTAGTGCAG” as the sequence, how does the binding signal read?
A: Its binding signal is 5140 fluorescence intensity (a.u.).

Q: How did the binding signal turn out when “TTATAGATGGCGATGGGACCGATCATCAATCCCCATGGTGCGGAGTCACCTAGTGCAG” was run?
A: The binding signal was 3150 fluorescence intensity (a.u.).

Q: For “GTTAGTCCTGATAAGCAGGGGATGCTGACACGCAGGGACTCGGAGTCACCTAGTGCAG”, which binding signal is on record?
A: Its binding signal is 4160 fluorescence intensity (a.u.).

Q: “ATCATTCGTTAGGTCGTAGTCGGGTTGGTAGGTACTTGGCCGGAGTCACCTAGTGCAG” was tested. Which binding signal did it give?
A: Its binding signal is 3280 fluorescence intensity (a.u.).

Q: Which binding signal does the source give for “AGATATACACACAGTGCATGCAAAAGAGCATGATTAGCATCGGAGTCACCTAGTGCAG” here?
A: The binding signal was 3340 fluorescence intensity (a.u.).

Q: With “GCAGCAGGTTCAAAGCTGCTGATGATGCTATTTATGTTTCCGGAGTCACCTAGTGCAG” as the sequence, how does the binding signal read?
A: The binding signal was 3520 fluorescence intensity (a.u.).

Q: For “CGTGACCGGCGTAGGTGTTCCCCTCCCCTGGCTACGTCTGCGGAGTCACCTAGTGCAG”, which binding signal is on record?
A: The binding signal was 3520 fluorescence intensity (a.u.).

Q: “GAACCGTTAGCGTACGCTACACCCGGCCCCACGCGTCAGTCGGAGTCACCTAGTGCAG” was tested. Which binding signal did it give?
A: Its binding signal is 5090 fluorescence intensity (a.u.).

Q: “CGTGTACCACCGTGCGACGCGTGGCTTGCTTCTACCACGCCGGAGTCACCTAGTGCAG” was tested. Which binding signal did it give?
A: Its binding signal is 4700 fluorescence intensity (a.u.).

Q: “TGTGATACTCTGTCTCCCTGTGATACCAGCACTATTTCCTCGGAGTCACCTAGTGCAG” was tested. Which binding signal did it give?
A: The binding signal was 4260 fluorescence intensity (a.u.).

Q: Which binding signal does the source give for “GGAAGGGAGAGAAGAGGGGAAAGAGAGAGGGTGACGTGGACGGAGTCACCTAGTGCAG” here?
A: Its binding signal is 19300 fluorescence intensity (a.u.).

Q: Which binding signal does the source give for “CTTGTTATGTTCCGTTTCTTCCAGCTTTGGTGCTCTCTCACGGAGTCACCTAGTGCAG” here?
A: Its binding signal is 30500 fluorescence intensity (a.u.).

Q: Which binding signal does the source give for “GTAACACTTTCAATATGTAGTTTTGTGATAATTTAGTTAACGGAGTCACCTAGTGCAG” here?
A: The binding signal was 3880 fluorescence intensity (a.u.).

Q: With “GGCAGATGCCAGGTCAGCTCCAACATTTTCCTGTGCTTTGCGGAGTCACCTAGTGCAG” as the sequence, how does the binding signal read?
A: The binding signal was 15900 fluorescence intensity (a.u.).

Q: “GGCGATGCGGAAAGCTACGTCCCTCTGACGTAGAATTTAACGGAGTCACCTAGTGCAG” was tested. Which binding signal did it give?
A: Its binding signal is 4650 fluorescence intensity (a.u.).

Q: Which binding signal does the source give for “CGCGCTGTCTGCACCGCCGCCGCCGCCGCCGGCGGAACCCCGGAGTCACCTAGTGCAG” here?
A: Its binding signal is 25200 fluorescence intensity (a.u.).

Q: “TCCGCTGTTGATTCATCAGCCGTGGAATGCCACGACGCAACGGAGTCACCTAGTGCAG” was tested. Which binding signal did it give?
A: The binding signal was 6330 fluorescence intensity (a.u.).

Q: With “TCTGCCACAGCTCCCATGTGCGCGCATCGCCATGGCCACGCGGAGTCACCTAGTGCAG” as the sequence, how does the binding signal read?
A: Its binding signal is 7410 fluorescence intensity (a.u.).

Q: For “ACCACCACCACCACCATCGCACTCCCAACTCCCAAGCCGCCGGAGTCACCTAGTGCAG”, which binding signal is on record?
A: The binding signal was 3760 fluorescence intensity (a.u.).

Q: Which binding signal does the source give for “TCATATATAGTATTATAATTAGCTTATCTTGTCGTGTGTTCGGAGTCACCTAGTGCAG” here?
A: Its binding signal is 3890 fluorescence intensity (a.u.).

Q: For “GTCAGTGTGGCCACGTCAGCATCCTCTCTTTTCCTCTCTTCGGAGTCACCTAGTGCAG”, which binding signal is on record?
A: Its binding signal is 40800 fluorescence intensity (a.u.).

Q: “TTCCCTCTGGGCCCCACCCGTCAGCGACTCCACGGCACGCCGGAGTCACCTAGTGCAG” was tested. Which binding signal did it give?
A: The binding signal was 3510 fluorescence intensity (a.u.).

Q: Which binding signal does the source give for “TCCCACTCCACCTTTGCCTCGTCGTCTCAATCGCCTTCGTCGGAGTCACCTAGTGCAG” here?
A: The binding signal was 4030 fluorescence intensity (a.u.).

Q: For “ATACGAGCCAAAGACCGTTGACAAGCTAGTCAACAGTCATCGGAGTCACCTAGTGCAG”, which binding signal is on record?
A: Its binding signal is 3270 fluorescence intensity (a.u.).

Q: Which binding signal does the source give for “TGTTTAGTGTGTAATACAACGTGGCAATCAAGCTCAAGATCGGAGTCACCTAGTGCAG” here?
A: Its binding signal is 3410 fluorescence intensity (a.u.).

Q: With “TGTCACCATATTGCGCCACGTCATCAAAGTAATAAGGGCCCGGAGTCACCTAGTGCAG” as the sequence, how does the binding signal read?
A: The binding signal was 13800 fluorescence intensity (a.u.).

Q: How did the binding signal turn out when “TATTCTTATCGCAGCAAAATCTAGTCAATTGTTATGGCATCGGAGTCACCTAGTGCAG” was run?
A: Its binding signal is 3160 fluorescence intensity (a.u.).

Q: How did the binding signal turn out when “TGAATCCACAGCCACGCCACGCGGCCCATGCCTACGCCTCCGGAGTCACCTAGTGCAG” was run?
A: Its binding signal is 4000 fluorescence intensity (a.u.).

Q: Which binding signal does the source give for “CCGCGCCACCTCATGCCGTGACGTGCAGATCCCCTCCTCCCGGAGTCACCTAGTGCAG” here?
A: Its binding signal is 7890 fluorescence intensity (a.u.).

Q: For “CACCACCACCACCGCTGCTGACTTCATCGCATCAGAACCACGGAGTCACCTAGTGCAG”, which binding signal is on record?
A: The binding signal was 3320 fluorescence intensity (a.u.).

Q: With “CGGCCGCCGCCGGGGTGGCACAAGCTGAACTTCGACGGATCGGAGTCACCTAGTGCAG” as the sequence, how does the binding signal read?
A: Its binding signal is 3270 fluorescence intensity (a.u.).

Q: With “TTATTGTGTGAATTTGGCCCACGTCGGCGGCGGCGGCGGACGGAGTCACCTAGTGCAG” as the sequence, how does the binding signal read?
A: The binding signal was 6550 fluorescence intensity (a.u.).

Q: Which binding signal does the source give for “GTAAATTACGTGTTCTTTTCACAGTTAAATTTGCTATTTTCGGAGTCACCTAGTGCAG” here?
A: Its binding signal is 3640 fluorescence intensity (a.u.).

Q: “CTTCTAGAGGTTTCTAGAAGATACTGGAGTTGGAGAGGTGCGGAGTCACCTAGTGCAG” was tested. Which binding signal did it give?
A: Its binding signal is 13000 fluorescence intensity (a.u.).

Q: “CAAATCCACACTCAAGAATTAGCGTAGATTACTATGGAATCGGAGTCACCTAGTGCAG” was tested. Which binding signal did it give?
A: The binding signal was 5750 fluorescence intensity (a.u.).

Q: How did the binding signal turn out when “GGGCTACAGGTTGAGCACGTGGGCTGGCACGGAACAACCCCGGAGTCACCTAGTGCAG” was run?
A: Its binding signal is 3570 fluorescence intensity (a.u.).

Q: “TCGACCCGTGAGGTGGCTTTCGTTGTCAGCGTCGTCAACGCGGAGTCACCTAGTGCAG” was tested. Which binding signal did it give?
A: The binding signal was 4030 fluorescence intensity (a.u.).

Q: Which binding signal does the source give for “CTCATACGCTAACACGTAATGAAATACCATTGGGTTGTTTCGGAGTCACCTAGTGCAG” here?
A: Its binding signal is 4690 fluorescence intensity (a.u.).

Q: With “ATTTACTGCCTATTCGTGAGTTGGTCCTCCTGACTCTGACCGGAGTCACCTAGTGCAG” as the sequence, how does the binding signal read?
A: Its binding signal is 3750 fluorescence intensity (a.u.).

Q: How did the binding signal turn out when “CTTCGCCGCCCTCGTTTGCCCGCCGCCACGCGTCGCTGTACGGAGTCACCTAGTGCAG” was run?
A: The binding signal was 5240 fluorescence intensity (a.u.).

Q: With “CGCCGAAGAGATTAATTCCACCAAAACCATATGTGTACGACGGAGTCACCTAGTGCAG” as the sequence, how does the binding signal read?
A: The binding signal was 19200 fluorescence intensity (a.u.).

Q: How did the binding signal turn out when “GTTACGACAACTTTAACACCGTCAACCTGAGCTAACAGATCGGAGTCACCTAGTGCAG” was run?
A: Its binding signal is 32900 fluorescence intensity (a.u.).

Q: “CCGCCACGTTGTTCCGTGTCACCCTAGAAAATAGCCGCACCGGAGTCACCTAGTGCAG” was tested. Which binding signal did it give?
A: Its binding signal is 6140 fluorescence intensity (a.u.).

Q: “TCGCTCGCCGCCGCGTCGCGTCGCGCCGCCACCTCACGCCCGGAGTCACCTAGTGCAG” was tested. Which binding signal did it give?
A: The binding signal was 4870 fluorescence intensity (a.u.).

Q: “GGCAACGCCAGCTATAGACCATAGATGGCTCTTGACTAGGCGGAGTCACCTAGTGCAG” was tested. Which binding signal did it give?
A: The binding signal was 3600 fluorescence intensity (a.u.).

From article PMC7819943, “Rice protein-binding microarrays: a tool to detect cis-acting elements near promoter regions in rice”
